Values of other authors as cited in US20230181603A1, “METHODS OF TREATING CANCER WITH METABOLITE ADJUSTMENTS” (priority 2021, published 2023).
At least one structure is not confirmed: it was looked up by name or label, or the drawing left a doubt.

System: cultured glioma cells

## CCCC(=O)O [Butyrate]
  cellular differentiation of cultured glioma cells: induces cellular differentiation
  invasiveness of cultured glioma cells: inhibits invasiveness
  proliferation of cultured glioma cells: inhibits
